We go through three sequences from US20240424134A1 (UIF (University Industry Foundation), Yonsei University, priority 2022, published 2024).

End groups of sequences in plain letters are not given here. The same purity stands for every peptide and may come from a single statement. Some results are limits rather than exact numbers.

This data set is described as follows: general procedure: Fmoc solid-phase peptide synthesis; Rink Amide MBHA resin LL (100-200 mesh, 0.30-0.40 mmol g^-1, Novabiochem); 2-chlorotrityl chloride resin for cyclic Exam; HCTU, HOBt. To be noted: whole synthesis, analytical HPLC (UV 230 nm), scale of the general procedure typically 0.1 mmol.

As to RAUAUAUAUAUAUAUAUAUAUAGRGDRGDRGDG, the “final HPLC purity” value is listed as over 95%. RGDRGDRGDAUAUAUAUAUAUAUAUAUAUAR: the “final HPLC purity” value was over 95%. As to RAUAUAUAUAUAUAUAUAUAUAGRGDRGDRGDRGDG, the “final HPLC purity” value is over 95%.
